# Data taken from PubChem BioAssay AID652208 (Broad Institute, 2013).
# Inconclusive means that the source gave no clear call.
# Experiment: HEK293T cell cytotoxicity, dose response, cytotoxicity control for HIV Vif inhibitor project, cherry-picks (AID 652208);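 note: 0% = median neutral control wells and -100% = median staurosporine control wells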
# Conditions: HEK293T viability, CellTiter-Glo luminescence, 24 h; at 26 µM (top of the series);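 active = Loss of cell signal with fitted half-effect dose at or below twice the top valid tested dose; inconclusive = Poor fit, or flat fit from -70 to -30 percent; inactive = Half-effect above limit, rising signal, or flat within 30 percent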
compound,measurement,value
COc1cc(C2c3cc4c(cc3CC3COC(=O)C32)OCO4)cc(OC)c1OC (stereo unspecified),"activity change, negative = cytotoxicity",inconclusive: -9.57%
